These results are taken from PMC12040169 (PLOS Biology, 2025).

Some of the results follow.

In the assay the test system is T1, CTL2-GFP (C. trachomatis L2/434/Bu, GFP-expressing).
T1 construct: L2/434/Bu, GFP-expressing
The arrangement: species or system HeLa; Intracellular C. trachomatis growth in HeLa cells, bulk GFP fluorescence relative to DMSO. The conditions noted are these: bulk GFP, single well; 28.5 h, 10 µM; inhibitor.
For the molecule `CC1CCN(c2nnnc3c2sc2nc(N4CCOCC4)c4c(c23)CC(C)(C)SC4)CC1` [CBK268062], the “% of control remaining” value was 129.294%.
To `COc1ccc(S(=O)(=O)NC(C)C(=O)NCc2ccncc2)cc1` (centres unmarked) [CBK269441] belongs 101.787%.
To `COc1ccc(S(=O)(=O)N(CC(=O)O)c2ccc(Cl)cc2)cc1OC` [CBK267836] belongs 129.904%.
To `CN(C)c1oc(-c2ccccc2)nc1S(=O)(=O)c1ccccc1` [CBK021477] belongs 69.9084%; to `Cc1oc2ccc(O)cc2c1C(=O)N(C)CCOc1ccccc1` [CBK282696], 112.89%; to `O=C(Cc1cn2ccsc2n1)NCCCN1CCCc2ccccc21` [CBK306611], 108.559%.
In the case of `N=C1NC(=O)/C(=C/c2ccc(OC(=O)c3cccc([N+](=O)[O-])c3)cc2)S1` [CBK263606], the “% of control remaining” value is 100%.
With `CCCCSc1nnc(NS(=O)(=O)c2ccc(NC(C)=O)cc2)s1` [CBK022853], the “% of control remaining” value came out at 114.117%.
Consider `CC1(C)CC(=O)C=C(C(=O)Nc2c(F)cc(F)cc2OC2CCNCC2)O1` [CBK050332T], for which the “% of control remaining” value is listed as 80.948%.
To `CC(C)(C)c1ccc(-n2cc(-c3ccc(F)cc3F)nn2)cc1` [CBK094818] belongs 99.2379%; to `CCN1C(=O)CC2(C1=O)C(=O)N(CCCOc1ccc(Cl)cc1)c1ccc(C)cc12` (centres unmarked) [CBK075648], 160.14%.
To `O=C(CN1C(=O)S/C(=C\c2ccccc2OCc2ccccc2)C1=O)c1ccc(Cl)cc1` [CBK264628] belongs 122.914%.
Then `O=C(O)C1CCCN(C(=O)NCc2ccc(F)cc2)C1` (centres unmarked) [CBK161364], with 120.121%; and `Cc1cc(C)n(-c2ccc3nnc(CCC(=O)Nc4nccs4)n3n2)n1` [CBK307617], with 104.695%.
Turning to `COc1ccccc1CC(=O)N1CCn2cc(C(F)(F)F)nc2C1` [CBK283806], the “% of control remaining” value is listed as 103.115%.
To `O=C(O)c1ccc(S(=O)(=O)Nc2nnc(C(F)(F)F)s2)cc1` [CBK062023] belongs 129.401%; to `Cc1ccc(-n2c(SCC(N)=O)nnc2-c2ccccc2O)c(C)c1` [CBK269673], 150.044%; to `CC1(C)CCCC2=C1CC(C(=O)O)C(C(=O)NCc1cccnc1)C2` (centres unmarked) [CBK286795], 115.749%.
To `COc1ccc(-c2nccnc2OC)c(OC)c1` [CBK107039] belongs 111.225%.
To `CCOc1ncccc1NC(=O)C(C)n1cccn1` (centres unmarked) [CBK245377] belongs 99.9464%; to `CC(C)(C)NC(=O)NCC(c1ccc[nH]1)C(F)(F)F` (centres unmarked) [CBK021595], 162.88%; to `O=C(Nc1nc(OCCN2CCCC2=O)cnc1/C=C\c1ccccc1)c1cc2ccccc2s1` [CBK145380], 65.1972%.
On to `CS(=O)(=O)N(CC(=O)NCc1ccccn1)c1ccc(I)cc1` [CBK265369], for which the “% of control remaining” value is recorded as 133.332%.
To `c1ccc(C(NCc2cnc(-c3cnccn3)s2)C2CCC2)cc1` (centres unmarked) [CBK304016] belongs 105.507%; to `Cc1c(C(=O)O)sc2nc(C=Cc3ccc(OCCC(C)C)cc3)[nH]c(=O)c12` [CBK297539], 123.255%; to `CC(C)(O)C#Cc1ccccc1C(=O)NC(Cc1c[nH]c2ccccc12)C(=O)O` (centres unmarked) [CBK267701], 165.521%.
Turning to `Brc1cccc(OCc2cccs2)c1` [CBK176011], the “% of control remaining” value is listed as 83.6047%.
To `O=C(O)CNS(=O)(=O)c1ccc2ccccc2c1` [CBK034460] belongs 166.967%; to `O=C(c1ccc(-c2cncc(-c3cc4ccccc4[nH]3)c2)cc1)N1CCOCC1` [CBK158419T], 98.6655%; to `Cn1c(SCCN2CCOCC2)nnc1-c1cccs1` [CBK010243], 118.18%.
`O=C(O)CNC(=O)/C(=C\c1ccco1)NC(=O)c1ccccc1Cl` [CBK263967]: the “% of control remaining” value was determined as 109.6%.
Take `COc1nccc(N2CCN(C)C3(CCNC(=O)CC3)C2)c1C#N` (centres unmarked) [CBK307676]: the “% of control remaining” value was 136.236%.
Then `O=C1/C(=C/c2ccccc2)S/C(=N/N=C/c2ccccc2)N1c1ccc(O)cc1` [CBK262803], with 126.479%; and `Cc1c(C)n(CC(=O)O)c2ccccc12` [CBK000884], with 91.0701%.
As to `O=S1(=O)N=C(Nc2ccc(S(=O)(=O)N3CCOCC3)cc2)c2ccccc21` [CBK269116], the “% of control remaining” value is on record as 110.039%.
Consider `Cc1cc(OC(C)C(=O)Nc2ncccc2C)ccc1Cl` (centres unmarked) [CBK269637], for which the “% of control remaining” value was determined as 152.487%.
To `CCC1CN(c2cc(CO)c(F)cn2)CC2(CCOC2)O1` (centres unmarked) [CBK304757] belongs 151.882%; to `Cc1cc(C)n(CCCC(=O)N2CCC3(CCCO3)CC2)n1` [CBK304397], 104.944%; to `c1ccc2oc(NC3=NCN(Cc4ccc5c(c4)OCO5)CN3)nc2c1` [CBK267964], 107.624%.
Then `Cc1ccc(CN2CC[C@@H]3[C@H](C2)[C@@H](c2ccsc2)CN3C(=O)c2ccccc2F)cc1` [CBK285658], with 78.6749%; and `CC(=O)Nc1cccc(OCC(=O)Nc2ccc(C)c(C)c2)c1` [CBK265429], with 106.534%.
To `COC(=O)c1sc2cc(C(F)(F)F)cnc2c1NC(=O)C1COc2ccccc2O1` (centres unmarked) [CBK115865] belongs 101.448%; to `COc1ccc(C2(C(=O)N3CCN(C)CC3)CC2)cc1` [CBK149837], 113.912%.
`COc1ccc2c(c1)c(C(C(=O)O)N1CCN(c3ccccn3)CC1)cn2CC(=O)O` (centres unmarked) [CBK286637]: the “% of control remaining” value amounted to 104.517%.
To `CCOCCN(CCOCC)c1nnc2ccc(Cl)nn12` [CBK010024] belongs 134.104%; to `COc1cc(C(=O)N2CCC3(CC2)CC(=O)c2cc(C)c(C)cc2O3)ccc1C` [CBK164202], 147.735%.
Take `Cc1cc(-c2ccccc2)nn(CCN2CCOCC2)c1=O` [CBK023022C]: the “% of control remaining” value is 125.154%.
To `COc1ccc(C2(C(=O)NCCc3ccc(O)cc3)CC2)cc1` [CBK149833] belongs 109.47%; to `Nc1nc(N)c2cc(C(F)(F)F)ccc2n1` [CBK025934], 33.3196%.
To `O=C(Nc1cc(-c2nc3ncccc3o2)ccc1Cl)c1ccc(-c2ccccc2[N+](=O)[O-])o1` [CBK264097] belongs 100%; to `C[C@@H](Nc1nccnc1-c1cccnc1)c1ccccc1` [CBK036759], 87.8774%; to `N=C1NC(=O)/C(=C\c2ccc(-c3ccc(Br)cc3)o2)S1` [CBK261409], 97.232%.
To `O=C1Nc2ccccc2C(O)(C(=O)NCc2ccccc2)N1c1ccccc1` (centres unmarked) [CBK288555] belongs 94.96%.
For the molecule `O=C(O)CCCN1C(=O)C(O)=C(C(=O)c2ccccc2)C1c1ccccc1` (centres unmarked) [CBK262924], the “% of control remaining” value came out at 134.391%.
Turning to `COc1cccc(C(=O)NCCC(=O)N2CCN(C)CC2)c1` [CBK304663], the “% of control remaining” value is on record as 97.2783%.
As to `O=C(Cn1ncn2c(cc3ccsc32)c1=O)NCc1cccs1` [CBK284197], the “% of control remaining” value is listed as 74.7233%.
Then `CCc1noc(C)c1C(=O)NCC1CCCCN1CC` (centres unmarked) [CBK282201], with 114.743%.
To `O=C(c1ccccc1)N1CCN(Cc2cc(=O)n3ccsc3n2)CC1` [CBK306095] belongs 121.295%; to `Cc1cc(C2CCCCCN2C(=O)c2c(Cl)cnn2C)on1` (centres unmarked) [CBK283045], 89.7747%; to `CN1CCN(C(=O)CSc2nnc(COc3ccccc3)o2)CC1` [CBK268970], 144.601%.
Then `Cc1cc(C(=O)N2CCn3cnnc3C2)c(C2CC2)o1` [CBK282059], with 92.4311%; and `O=[N+]([O-])c1ccc(S(=O)(=O)Nc2cccc3[nH]ccc23)cc1` [CBK159550], with 78.7569%; and `Cc1ccc(-c2nnc(CNC(=O)c3cccc(-c4ccc(F)cc4)c3)o2)s1` [CBK286300], with 91.9443%.
With `Cc1ccc(C)n1-c1ccc(C(=O)OCC(=O)c2cccc([N+](=O)[O-])c2)cc1` [CBK264427], the “% of control remaining” value came to 105.936%.
Then `COCc1cc(=O)oc2cc(NS(C)(=O)=O)ccc12` [CBK008516], with 141.816%; and `Cc1cc(C)nc(NC(=O)C2C3C=CC(C3)C2C(=O)O)c1` (centres unmarked) [CBK058843], with 83.7912%; and `COc1ccc(NS(=O)(=O)c2ccc(N3CCCC3=O)cc2)cn1` [CBK270216], with 129.593%.
Then `Cc1cc(/C=C(/C#N)c2nc3ccccc3[nH]2)c(C)n1-c1ccc(S(N)(=O)=O)cc1` [CBK264769], with 100%; and `Cc1nc2ccc(NC(=O)CC3CCN(C(=O)CC4CCCCC4)CC3)cc2[nH]1` [CBK285967], with 142.003%; and `CCN(Cc1cn2cccc(C(=O)OC)c2n1)CC1CCOC1` (centres unmarked) [CBK304880], with 103.742%.
To `CC(C(=O)NCCn1nc(-c2ccco2)ccc1=O)c1ccccc1` (centres unmarked) [CBK283861] belongs 124.35%.
Consider `CN(c1ncc(Br)cc1C(=O)NC1CCCCC1)S(C)(=O)=O` [CBK076531], for which the “% of control remaining” value turned out to be 103.983%.
Then `Cn1cncc1C(=O)NC1CCCC1` [CBK200256], with 93.406%; and `COc1cccc(-n2cnc3cccc(N)c32)c1` [CBK022114], with 134.897%; and `Nc1ncnc2[nH]c(SCc3nc4ccc(I)cc4c(=O)n3-c3ccccc3)nc12` [CBK267174], with 113.526%.
As to `N=C1NC(=O)/C(=C/c2cccc(OCCOc3ccc(C4CCCCC4)cc3)c2)S1` [CBK263956], the “% of control remaining” value was 100%.
For `O=C(NCc1ccco1)c1cc(S(=O)(=O)N2CCOCC2)ccc1Br` [CBK269907], the “% of control remaining” value was determined as 158.656%.
Take `O=C(CC(C(=O)O)n1cccn1)c1ccc(Br)cc1` (centres unmarked) [CBK269541]: the “% of control remaining” value was 145.179%.
To `Cc1cc(C)n(CCC(=O)NCC(c2ccccn2)N2CCOCC2)n1` (centres unmarked) [CBK307396] belongs 130.173%.
Then `CCOC(=O)Cn1c(C)nc(C)cc1=O` [CBK012419], with 129.782%.
